Each structure is given as a SMILES string. The list is a part of this screen's results and no random one: it gathers tests that were run many times, whatever their T/C, doses with no T/C, and many T/C values between a quarter and a half above the control. Other doses and runs of a compound stand elsewhere. T/C: endpoint of the treated group in % of that of the vehicle group. Some doses have a count of surviving animals in place of a T/C: the source holds a T/C of zero for them, seemingly a mark for toxic or unscored doses. Some survivor counts are full or nearly so, which does not show that the dose was tolerated: survival well below the control is almost never listed, so the zero probably covers shortened survival too. For some of these results: Survivors were counted at the toxicity check, usually on the fifth day, unless a day is given; later deaths do not show. Schedules are NCI's codes, read here as Q, the interval in days (D) or hours (H), X, the number of doses. Some schedule codes hold Z or #, which are not explained here. For some of these results: For survival time, the PubChem record calls one and a half times the control and up active, and a quarter to a half above the control has no call in these data; cut-offs in other NCI protocols can differ. Some T/C values carry the count of animals alive at the toxicity check (mostly the fifth day); where none is given, no animal had died by that day. Numbered stars: 1 amine (or outer) side, 2 acyl side, 3 side chain; on linkers, the order of the positions; unused ones are H or OH. Bridge positions count the residues as written; N and C are the ends. Square brackets hold non-standard residues; d marks the D form. Peptide text beside a SMILES is read from it. I, II: the chains in the order shown. Actinocin(9to1) = Cc1c2oc3c(C)ccc(C(=O)[*:1])c3nc-2c(C(=O)[*:2])c(N)c1=O; aThr = C[C@H](O)[C@H](N)C(=O)O; NMeV = CN[C@H](C(=O)O)C(C)C; Sar = CNCC(=O)O

These results are taken from PubChem BioAssay AID250 (DTP/NCI, 2004).

The subject of assay [1] is BDF1 mice, L1210 leukemia sc. In words: NCI In Vivo Anticancer Drug Screen. Data for tumor model L1210 Leukemia (subcutaneous) in B6D2F1 (BDF1) mice. The note with it: T/C endpoint: median survival time, higher T/C = longer survival. A digest of the protocol: (§1)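 Expressed as T/C: measurement in compound-treated, tumor-bearing mice relative to vehicle-treated control mice, based on survival or tumor size.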

Assay [2] concerns BDF1 mice, L1210 leukemia sc, survival T/C. The assay is described as above. The note with it: T/C endpoint: median survival time, higher T/C = longer survival. A digest of the protocol:
as §1

For the compound `Nc1nc(=S)c2[nH]cnc2[nH]1`, the T/C was 131 % of control in assay [1] (dose: 0.75 mg/kg/injection, schedule: Q01DX009 (sc), vehicle: other); 131 % of control in assay [1] (dose: 0.75 mg/kg/injection, schedule: Q## X009 (sc), vehicle: other); 127 % of control in assay [1] (dose: 1.25 mg/kg/injection, schedule: Q02DX009 (sc), vehicle: other); 133 % of control in assay [1] (dose: 1.25 mg/kg/injection, schedule: Q02DX Z (sc), vehicle: other); 130 % of control in assay [1] (dose: 1.3 mg/kg/injection, schedule: Q01DX Z (sc), vehicle: methylcellulose (MC)); 137 % of control in assay [1] (dose: 1.5 mg/kg/injection, schedule: Q01DX009 (sc), vehicle: other, evaluated on day 7). For the same compound, the T/C in assay [1] (dose: 1.5 mg/kg/injection, schedule: Q01DX009 (sc), vehicle: other, evaluated on day 35) was 130 % of control; in assay [1] (dose: 2.0 mg/kg/injection, schedule: Q01DX Z (sc), vehicle: other) it was 145 % of control; in assay [1] (dose: 3.6 mg/kg/injection, schedule: Q01DX Z (sc), vehicle: methylcellulose (MC)) it was 131 % of control; in assay [1] (dose: 4.0 mg/kg/injection, schedule: Q01DX Z (sc), vehicle: other) it was 145 % of control; in assay [1] (dose: 5.0 mg/kg/injection, schedule: Q01DX Z (oral), vehicle: methylcellulose (MC)), 131 % of control [9 of 10 alive]; in assay [1] (dose: 6.0 mg/kg/injection, schedule: Q01DX009 (sc), vehicle: other) it was 149 % of control. Besides, the T/C in assay [1] (dose: 6.0 mg/kg/injection, schedule: Q01DX Z (sc), vehicle: methylcellulose (MC)) was 131 % of control; in assay [1] (dose: 6.0 mg/kg/injection, schedule: Q## X009 (sc), vehicle: other), 149 % of control; in assay [1] (dose: 8.4 mg/kg/injection, schedule: Q01DX Z (sc), vehicle: methylcellulose (MC)) it was 136 % of control [9 of 10 alive]; in assay [1] (dose: 10.0 mg/kg/injection, schedule: Q01DX Z (sc), vehicle: methylcellulose (MC)) it was 131 % of control; in assay [1] (dose: 12.0 mg/kg/injection, schedule: Q01DX009 (sc), vehicle: other), 140 % of control; in assay [1] (dose: 12.0 mg/kg/injection, schedule: Q## X009 (sc), vehicle: other), 140 % of control [7 of 8 alive]. Also, the T/C in assay [1] (dose: 14.0 mg/kg/injection, schedule: Q01DX Z (oral), vehicle: methylcellulose (MC)) was 140 % of control [9 of 10 alive]; in assay [1] (dose: 14.0 mg/kg/injection, schedule: Q01DX Z (sc), vehicle: methylcellulose (MC)), 145 % of control; in assay [1] (dose: 16.0 mg/kg/injection, schedule: Q01DX Z (sc), vehicle: other), 140 % of control; in assay [1] (dose: 20.0 mg/kg/injection, schedule: Q02DX009 (sc), vehicle: other), 148 % of control; in assay [1] (dose: 23.0 mg/kg/injection, schedule: Q01DX Z (oral), vehicle: methylcellulose (MC)), 145 % of control; in assay [1] (dose: 23.0 mg/kg/injection, schedule: Q01DX Z (sc), vehicle: methylcellulose (MC)), 140 % of control. In addition, the T/C in assay [1] (dose: 40.0 mg/kg/injection, schedule: Q02DX009 (sc), vehicle: other) was 147 % of control; in assay [1] (dose: 65.0 mg/kg/injection, schedule: Q01DX Z (oral), vehicle: methylcellulose (MC)), 145 % of control; in assay [1] (dose: 108.0 mg/kg/injection, schedule: Q01DX Z (oral), vehicle: methylcellulose (MC)), 136 % of control. Besides, the survivor count in assay [2] (dose: 1.8 mg/kg/injection, schedule: Q01DX Z (sc), vehicle: methylcellulose (MC)) is on record as 6 of 10.
For the compound `CN(O)C(N)=O`, the T/C in assay [1] (dose: 78.0 mg/kg/injection, schedule: Q01DX Z (sc), vehicle: saline) is 138 % of control [7 of 8 alive]. In addition, the survivor count in assay [2] (dose: 130.0 mg/kg/injection, schedule: Q01DX Z (sc), vehicle: saline) was 4 of 8; in assay [2] (dose: 216.0 mg/kg/injection, schedule: Q01DX Z (sc), vehicle: saline), 4 of 8; in assay [2] (dose: 600.0 mg/kg/injection, schedule: Q01DX Z (sc), vehicle: saline), 4 of 8.
As for `CC(=O)OCC(=O)[C@@]1(O)CC[C@H]2[C@@H]3CCC4=CC(=O)CC[C@]4(C)[C@@]3(F)[C@@H](O)C[C@@]21C`, the T/C in assay [1] (dose: 833.0 mg/kg/injection, schedule: Q01DX Z (sc), vehicle: methylcellulose (MC)) was 125 % of control. Besides, the survivor count in assay [2] (dose: 108.0 mg/kg/injection, schedule: Q01DX Z (sc), vehicle: methylcellulose (MC)) is given as 2 of 10; in assay [2] (dose: 180.0 mg/kg/injection, schedule: Q01DX Z (sc), vehicle: methylcellulose (MC)), 2 of 10; in assay [2] (dose: 300.0 mg/kg/injection, schedule: Q01DX Z (sc), vehicle: methylcellulose (MC)), 4 of 10; in assay [2] (dose: 500.0 mg/kg/injection, schedule: Q01DX Z (sc), vehicle: methylcellulose (MC)), 5 of 10.
`NC(Cc1c[nH]c2ccc(N(CCCl)CCCl)cc12)C(=O)O` (stereo not given): the T/C in assay [1] (dose: 3.0 mg/kg/injection, schedule: Q01DX Z (sc), vehicle: methylcellulose (MC)) is 141 % of control; in assay [1] (dose: 5.0 mg/kg/injection, schedule: Q01DX Z (sc), vehicle: methylcellulose (MC)), 129 % of control. Moreover, the survivor count in assay [2] (dose: 0.39 mg/kg/injection, schedule: Q01DX Z (sc), vehicle: methylcellulose (MC)) is recorded as 5 of 8.
In the case of `Cc1c(CNc2ccc(C(=O)NC(CC(=O)O)C(=O)O)cc2)ccc2nc(N)nc(N)c12` (stereo not given), the T/C in assay [1] (dose: 0.08 mg/kg/injection, schedule: Q01DX017 (sc), vehicle: sodium bicarbonate) is 125 % of control. For the same compound, the survivor count in assay [2] (dose: 39.0 mg/kg/injection, schedule: Q01DX017 (sc), vehicle: sodium bicarbonate) is given as 8 of 8; in assay [2] (dose: 65.0 mg/kg/injection, schedule: Q01DX017 (sc), vehicle: sodium bicarbonate), 8 of 8.
`Nc1n[nH]c(N)n1`: the T/C in assay [1] (dose: 300.0 mg/kg/injection, schedule: Q03HX024 (ip), vehicle: water) is 133 % of control; in assay [1] (dose: 300.0 mg/kg/injection, schedule: Q03HX024 (sc), vehicle: water) it was 133 % of control; in assay [1] (dose: 500.0 mg/kg/injection, schedule: Q03HX024 (sc), vehicle: none), 140 % of control; in assay [1] (dose: 500.0 mg/kg/injection, schedule: Q08DX009 (sc), vehicle: none), 130 % of control; in assay [1] (dose: 833.0 mg/kg/injection, schedule: Q03HX024 (sc), vehicle: water) it was 127 % of control [6 of 8 alive]; in assay [1] (dose: 1200.0 mg/kg/injection, schedule: Q01DX Z (sc), vehicle: water) it was 127 % of control. In assay [1] (dose: 2000.0 mg/kg/injection, schedule: Q08DX009 (sc), vehicle: none), the T/C was 135 % of control. Besides, the survivor count in assay [2] (dose: 833.0 mg/kg/injection, schedule: Q03HX024 (ip), vehicle: water) is recorded as 4 of 8.
Take `Cc1c2oc3c(C)ccc(C(=O)N[C@@H]4C(=O)N[C@H](C(C)C)C(=O)N5CCC[C@H]5C(=O)N(C)CC(=O)N(C)[C@@H](C(C)C)C(=O)O[C@H]4C)c3nc-2c(C(=O)N[C@@H]2C(=O)N[C@H](C(C)C)C(=O)N3CCC[C@H]3C(=O)N(C)CC(=O)N(C)[C@@H](C(C)C)C(=O)O[C@H]2C)c(N)c1=O` (I: [aThr][dV]P[Sar][NMeV] / II: [aThr][dV]P[Sar][NMeV]; ester I:1-I:C, II:1-II:C; linker I:N-II:N via Actinocin(9to1)): the T/C in assay [1] (dose: 0.19 mg/kg/injection, schedule: Q01DX Z (sc), vehicle: saline) is 140 % of control [9 of 10 alive]; in assay [1] (dose: 0.31 mg/kg/injection, schedule: Q01DX Z (sc), vehicle: saline), 130 % of control [8 of 10 alive]. Besides, the survivor count in assay [2] (dose: 0.04 mg/kg/injection, schedule: Q01DX Z (sc), vehicle: saline) was 3 of 10; in assay [2] (dose: 0.11 mg/kg/injection, schedule: Q01DX Z (sc), vehicle: saline), 4 of 10.
